No constants are given. Whether binding was seen depends on the method and setting. In cells and extracts the contact can be indirect. A yes stands for co-enrichment or nearness to the bait. Other partners may have been found.
Target: T1, Phosphoglycerate dehydrogenase (PHGDH), endogenous (human (endogenous in PANC-1 and AsPC-1)) (UniProt O43175)
T1 sequence: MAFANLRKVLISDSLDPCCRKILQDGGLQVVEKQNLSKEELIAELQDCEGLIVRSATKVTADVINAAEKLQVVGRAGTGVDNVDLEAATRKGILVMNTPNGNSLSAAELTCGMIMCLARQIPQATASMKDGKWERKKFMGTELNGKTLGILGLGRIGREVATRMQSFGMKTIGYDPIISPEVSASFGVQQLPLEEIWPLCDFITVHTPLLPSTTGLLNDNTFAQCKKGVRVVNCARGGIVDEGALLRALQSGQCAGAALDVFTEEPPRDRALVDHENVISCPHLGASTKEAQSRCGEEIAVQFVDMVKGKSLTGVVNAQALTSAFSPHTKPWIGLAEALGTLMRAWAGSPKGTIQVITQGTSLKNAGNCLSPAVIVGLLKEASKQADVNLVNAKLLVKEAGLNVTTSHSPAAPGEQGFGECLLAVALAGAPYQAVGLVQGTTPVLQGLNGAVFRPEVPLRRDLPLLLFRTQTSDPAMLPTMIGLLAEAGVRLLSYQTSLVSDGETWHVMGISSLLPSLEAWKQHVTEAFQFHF
Experiment: affinity purification with mass spectrometry; co-immunoprecipitation of PHGDH and mass spectrometry of the precipitate; details in Figure S4A, B and Table S1

The chains behind the UniProt entries cited, without tags or fusion partners.
UniProt P60842: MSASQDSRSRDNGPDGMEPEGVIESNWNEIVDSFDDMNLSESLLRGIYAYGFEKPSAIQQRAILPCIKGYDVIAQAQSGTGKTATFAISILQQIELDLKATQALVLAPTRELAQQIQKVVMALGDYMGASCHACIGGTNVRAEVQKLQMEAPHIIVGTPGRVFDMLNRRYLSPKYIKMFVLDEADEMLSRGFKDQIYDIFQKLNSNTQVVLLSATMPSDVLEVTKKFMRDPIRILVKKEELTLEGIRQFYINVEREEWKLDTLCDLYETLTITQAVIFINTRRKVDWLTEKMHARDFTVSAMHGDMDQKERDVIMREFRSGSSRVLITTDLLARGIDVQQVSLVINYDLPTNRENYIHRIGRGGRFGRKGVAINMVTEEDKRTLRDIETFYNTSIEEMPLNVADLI

- binding: binds
Substance: eukaryotic translation initiation factor 4A1 (eIF4A1), endogenous (from UniProt P60842 1-406)

— paper PMC6371491
